Assay results reported in US20260035723.

Biological target: T1, Exonuclease III (Escherichia coli) (UniProt P09030)
T1 sequence (looked up, limits assumed): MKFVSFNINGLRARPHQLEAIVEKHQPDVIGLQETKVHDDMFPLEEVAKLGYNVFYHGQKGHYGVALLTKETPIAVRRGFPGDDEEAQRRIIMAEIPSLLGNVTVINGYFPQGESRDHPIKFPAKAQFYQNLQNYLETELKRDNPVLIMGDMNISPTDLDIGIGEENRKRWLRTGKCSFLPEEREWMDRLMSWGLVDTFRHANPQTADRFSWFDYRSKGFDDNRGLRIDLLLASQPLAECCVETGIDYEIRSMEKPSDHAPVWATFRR
Assay: enzyme reaction in vitro
Conditions: PS at first-strand 5' nucleotides, ssDNA produced even without added AP endonuclease, CutSmart buffer, purified recombinant protein, protein details: 4basebio

Row | Sequence | activity on this sequence (abasic site at position 6 of second strand, no visible dsDNA remains) | activity on this sequence (abasic site at position 8 of second strand)
1 | GGCCAACAAATGTTAG / AGGGCAACATTTGTTGGCC [adaptor abasic 1 (ligated to target DNA)] | active | –
2 | GGCCAACAAATGTTAG / AGGGCTACATTTGTTGGCC [adaptor abasic 2 (ligated to target DNA)] | – | active

The exact form of at least one protein or probe is not confirmed. Where a protein sequence is shown, tags need not be part of it.
